Measured values published in patent US5336677A, “Substituted aminopyrimidines as antihypertensives” (American Home Products Corporation, priority 1992, dated 1994).
Counter-ions that a name gives are not always drawn. At least one compound was matched to its structure with a doubt left.

Target: angiotensin II receptor
Experiment: rat adrenal receptor binding assay, displacement of radiolabeled angiotensin II (Inhibition of 125I Angiotensin II Binding)
Settings: rat adrenal cortex membranes; 1 nM 125I-A II; 25° C.; 35 min
Procedure: The high affinity of the compounds for the angiotensin II receptor was established using a rat adrenal receptor binding assay, measuring the displacement of radiolabeled angiotensin II from the receptor, described as follows: Anesthetize male Sprague-Dawley rats (300-400 g body weight) with CO2 and sacrifice by cervical dislocation. Dissect adrenal glands and keep in ice-cold sucrose buffer. (0.2M sucrose, 1 mM EDTA, 10 mM Trizma base, pH=7.2). Remove medulla by squashing. Mince the cortex, rinse and homogenize in a chilled ground glass tissue grinder with 15 ml sucrose buffer. Centrifuge at 3000× g for 10 min. (Sorvall RCSC centrifuge, SS34 rotor 6200 rpm). Decant supernatant through gauze. Centrifuge combined supernatants at 12,000× g for 13 min. (Beckman ultracentrifuge, 80Ti rotor, 13,000 rpm). […] (Beckman ultracentrifuge, 80Ti rotor, 38,200 rpm). All steps are carried out at 4° C. Resuspend the pellet in 0.5 mL assay buffer (50 mM Tris HCI, 5 mM MgCl2, 0.2% BSA (protease-free), pH= 7.4, 25° C.). Store on ice. Determine membrane protein by Lowry or Bradford assay with BSA as standard. The binding assay is performed in triplicate, in 12×75 mm plastic test tubes or in 96-well plate (final volume of 0.25 mL). Add 140 μL assay buffer. […] Add 50 μL membrane suspension (e.g., 10 μg protein). […] Calculate the quantities of hot A II and the cold A II needed and make the dilution. […]

For `CCCCc1c(C)nc(C(F)(F)F)nc1NCc1ccc(-c2ccccc2-c2nnn[nH]2)cc1` [Example 41, 5-Butyl-6-methyl-N-[[2'-(1H-tetrazol-5-yl)[1,1'-biphenyl]-4-yl]methyl]-2-(trifluoromethyl)-4-pyrimidinamine sodium salt hydrate], the IC50 was 0.101 µM.
